In patent US8075921B2, “Rapamycin-resistant T cells and therapeutic uses thereof” (The United States of America as represented by the …, priority 2001, dated 2011):
“Also recorded” adds a separate entry of the source. At least one structure is not confirmed: it was looked up by name or label, or the drawing left a doubt.

Tests used:
[1] = test system: human Th2 cells; assay: Surface marker expression (CD62L, CD40L) on human Th2 cells; format: cell-based; conditions: relative to control Th2 cells
[2] = test system: human CD4 cells; assay: Human CD4 cell expansion, anti-CD3, anti-CD28 co-stimulation with IL-4 and IL-2; format: cell-based; conditions: 1.0 μM rapamycin; n=4 normal donors
[3] = test system: L1210-fas transfected tumor targets; assay: Chromium release CTL assay, Tc2 effectors, fas pathway (calcium neutralization); format: cell-based, murine; conditions: Tc2 cells propagated in high dose rapamycin
[4] = test system: conventionally propagated Th2 cells; assay: CD3, CD28 re-stimulation of human conventionally propagated Th2 cells with rapamycin; format: cell-based; conditions: 0.01 μM rapamycin
[5] = test system: P815 tumor target; assay: Chromium release heteroconjugate CTL assay, Tc2 effectors, calcium-replete (granule-mediated killing); format: cell-based, murine; conditions: Tc2 cells propagated in high dose rapamycin
[6] = test system: murine CD4^+ T cells; assay: CD4+ expansion after activation with anti-CD3 only beads (signal 1 only, no co-stimulation); format: cell-based; conditions: 0.02 μM rapamycin
[7] = test system: human Th2 cells; assay: Cytokine secretion of human Th2 cultures
[8] = test system: murine CD4^+ Th1 cells; assay: Cytokine secretion of Th1-cultured CD4 cells, 24 hour re-stimulation supernatant, two site ELISA; format: cell-based
[9] = test system: murine CD8^+ cells; assay: CD62L expression on CD8+ cells expanded in rapamycin; format: cell-based; conditions: CD8 expansion in high-dose rapamycin
[10] = test system: control Th1 or Th2 effectors; assay: Secondary expansion of control effectors re-stimulated with anti-CD3, anti-CD28 in presence of rapamycin; format: cell-based, murine; conditions: re-stimulated in presence of 0.1 μM and in particular 10 μM rapamycin
[11] = test system: murine CD4^+ Th2 cells; assay: Cytokine secretion of Th2-cultured CD4 cells, 24 hour re-stimulation supernatant, two site ELISA; format: cell-based
[12] = test system: murine CD8^+ Tc1 and Tc2 cells; assay: Cytokine secretion of Tc1/Tc2 cells expanded in rapamycin; format: cell-based; conditions: expanded in high dose rapamycin
[13] = test system: rapamycin-generated Th2 cells; assay: Secondary expansion of rapamycin-generated Th2 cells re-stimulated with anti-CD3, anti-CD28 in presence of rapamycin; format: cell-based, murine; conditions: re-stimulation in presence of 10 μM rapamycin; Th2 culture initially propagated in 10 μM
[14] = test system: murine Tc1 and Tc2 populations; assay: CD8+ Tc1/Tc2 expansion after CD3, CD28 co-stimulation; format: cell-based; conditions: 0.1 μM rapamycin
[15] = test system: Th2 cells; assay: Rhodamine (MDR substrate) exclusion by flow cytometry; format: cell-based, human; conditions: Th2 cells expanded with rapamycin; abrogated by MDR blocking agent
[16] = test system: murine CD4^+ Th2 cells; assay: Surface marker expression (CD28, CD62L, CD40L) on Th2 cells propagated in rapamycin
[17] = test system: murine CD4^+ and CD8^+ T cells; assay: Median cell volume (Coulter) during Th1, Th2, Tc1 or Tc2 expansion; format: cell-based; conditions: high dose rapamycin
[18] = test system: murine CD4^+ Th1 and Th2 cells; assay: CD4+ Th1/Th2 cell expansion after anti-CD3, anti-CD28 co-stimulation (Multi-Sizer counts); conditions: for CD4 cell expansion under Th1 or Th2 conditions: 0.004 μM or 0.02 μM, relative to control cultures
[19] = Th1 expansion in the presence of rapamycin
[20] = high-dose rapamycin generated Th2 cells
[21] = highest rapamycin concentration (range 0.1 to 10.0 μM)

With `CO[C@H]1C[C@@H]2CC[C@@H](C)[C@@](O)(O2)C(=O)C(=O)N2CCCC[C@H]2C(=O)O[C@H]([C@H](C)C[C@@H]2CC[C@@H](O)[C@H](OC)C2)CC(=O)[C@H](C)/C=C(\C)[C@@H](O)[C@@H](OC)C(=O)[C@H](C)C[C@H](C)/C=C/C=C/C=C/1C` [rapamycin] the CD40L expression [1] was “significantly reduced CD40L”, the CD62L expression ([1]; most marked with continuous rapamycin) was “increased expression of CD62L” and the “CD4 cell numbers after the first six days” value [2] was “followed by a period of CD4 expansion”. The “CD4 cell numbers, first six days of culture” value [2] was “initial significant reduction in CD4 cell numbers in the first six days of culture”, the “lytic capacity of Tc2 cells through the fas pathway” value [3] was “reduced lytic capacity through the fas pathway” and the expansion on re-stimulation [4] was “significantly reduce expansion of conventionally propagated Th2 cells”. The “granule-mediated killing by Tc2 cells” value [5] was “reduced capacity to lyse the P815 tumor target”, the “CD4+ cell yield, signal 1 only generated Th1 or Th2 cultures” value [6] was “did not result in a significant decrease in CD4^+ cell yield” and the IFN-γ secretion capacity ([7]; Th2 conditions and rapamycin, day 0 to 6 or continued exposure) was “reduction in capacity for IFN-γ secretion”. For the same compound, the IL-2 secretion ([7]; effect during initial six days of rapamycin exposure) was “dramatic reduction in IL-2 secretion”, the “secretion of type II cytokines IL-4 and IL-13” value ([7]; rapamycin-generated Th2 cells) was “increased capacity for secretion of the type II cytokines IL-4 and IL-13” and the “type II cytokine secretion of Th1 cells” value ([8]; Th1 cells propagated in 0.1 μM rapamycin) was “did not have an increased capacity for type II cytokine secretion”. The “IFN-γ secretion capacity of Th1 cells” value [8, 19] was “dramatic increase in Th1 cell capacity for IFN-γ secretion”, the “IL-2 secretion capacity of Th1 cells” value [8, 19] was “nominal increase in IL-2 secretion capacity” and the “IL-2 and IFN-γ secretion of Th1 cells” value ([8]; each rapamycin concentration (0.008 μM to 0.1 μM)) was “similarly high secretion of both IL-2 and IFN-γ”. For the same compound, the “CD62L expression on CD8 cells” value [9] was “increased CD62L expression”, the secondary expansion capacity [10] was “significantly reduced secondary expansion capacity” and the “secretion of type II cytokines IL-4, IL-5 and IL-10 by Th2 cells” value ([11]; Th2 cells propagated in 0.1 μM rapamycin) was “preservation of capacity for secretion of the type II cytokines IL-4, IL-5, and IL-10”. The “IL-2 secretion by Th2 cells” value ([11]; Th2 expansion in 0.1 μM rapamycin) was “elimination of the “contaminating” quantities of IL-2 secretion”, the “IL-4 and IL-5 secretion by Th2 cells” value [11, 20] was “full preservation” and the “IL-10 and IL-13 secretion by Th2 cells” value [11, 20] was “significant reduction”. The “IFN-γ secretion by Th2 cells” value [11, 21] was “modest reduction in IFN-γ secretion”, the “IL-2 secretion by Th2 cells” value [11, 21] was “abrogation of contaminating IL-2 secretion” and the “IFN-γ secretion of Tc1 cells” value [12] was “lost their capacity for IFN-γ secretion”. For the same compound, the “IFN-γ secretion of Tc2 cells” value [12] was “lost their capacity for IFN-γ secretion”, the “IL-2 secretion of Tc1 cells” value [12] was “reduced capacity for IL-2 secretion” and the “secondary Th2 expansion” value [13] was “significant inhibition of Th2 expansion”. For the same compound, the “CD8+ Tc1/Tc2 expansion” value [14] was “nominally reduced”, the “rhodamine dye exclusion (MDR function)” value [15] was “increased capacity for rhodamine dye-exclusion; also recorded: increased MDR function; also recorded: increased capacity for rhodamine dye exclusion” and the “CD62L expression on Th2 cells” value ([16]; expanded in rapamycin, in particular high dose) was “increased expression of CD62L”. For the same compound, the “CD28 expression on CD4+ cells” value ([16]; propagated in high dose (10 μM) rapamycin) was “greatly increased”, the “CD40L expression on Th2 cells” value ([16]; propagated in rapamycin, in particular high dose) was “significant reduction in Th2 cell CD40L expression” and the “median cell volume, CD8+ Tc1 or Tc2 conditions” value [17] was “not such a dramatic rapamycin-associated reduction in median cell volume”. For the same compound, the “CD4 cell expansion under Th1 or Th2 conditions” value ([18]; six days) was “no significant inhibition in CD4+ T cell expansion”, the “CD4 cell number relative to Th1 and Th2 control cultures” value ([18]; 0.02 μM rapamycin) was “increased CD4 cell number relative to the Th1 and Th2 control cultures” and the “CD4 cell yield, Th1 or Th2 subsets” value ([18]; 0.1 μM rapamycin, six day culture) was “without any apparent reduction in CD4 cell yield; also recorded: without any apparent reduction in numbers of CD4-expressing cells”. For the same compound, the “Th2 cell expansion day 0 to 6” value ([18]; 2.5 μM and 10 μM rapamycin, relative to control culture) was “reduced approximately one log relative to the control culture”, the “CD4+ cell expansion day 6 to day 9” value ([18]; Th2 cultures continued in higher concentration of rapamycin, no re-stimulation, relative to control Th2 culture) was “increase in CD4^+ cell expansion” and the “CD4+ expansion after day 6 anti-CD3 and anti-CD28 re-stimulation” value ([18]; high dose rapamycin Th2 cultures, ongoing cytokine and rapamycin addition) was “increased CD4^+ expansion; also recorded: increase in numbers of CD4+ expressing cells”.
`C=CC[C@@H]1/C=C(\C)C[C@H](C)C[C@H](OC)[C@H]2O[C@@](O)(C(=O)C(=O)N3CCCC[C@H]3C(=O)O[C@H](/C(C)=C/[C@@H]3CC[C@@H](O)[C@H](OC)C3)[C@H](C)[C@@H](O)CC1=O)[C@H](C)C[C@@H]2OC` [FK506] was tested, and the “IL-2 and IFN-γ secretion capacity of Th1 cells” value ([8]; agent present during six-day Th1 expansion) was “significantly diminished capacity for both IL-2 and IFN-γ secretion”, the “IL-4 and IL-10 production by Th2 cells” value ([11]; agent present during six-day Th2 expansion, relative to control Th2 culture) was “reduced the capacity of the CD4 cells to produce IL-4 and IL-10” and the “increase in CD4 cell number” value ([18]; 0.004 μM or 0.02 μM FK506, Th1 or Th2 conditions, six days) was “two to three fold increase in CD4 cell number”. The “CD4 cell expansion under Th1 or Th2 conditions” value ([18]; six days) was “dramatic reduction in CD4 cell expansion”.
